Data reported in the supplement of paper PMC12823440, “Inhibitors supercharge kinase turnover through native proteolytic circuits” (Nature, 2025).
Structures can show the parent of a compound that is named as a salt. The list shows a part of the results. Hit calls seldom repeat between salt and free forms of one compound.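 Kinases, fused to nanoluciferase, were expressed in K562 cells; luminescence was measured every 4 h from 2 to 18 h as percent of control (DMSO = 100%, positive control = 0%). A time point is decreased if signal falls significantly (2 sigma). Hits were called by the authors by a rule that is not shown; the count of time points alone does not decide it.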

By UniProt entry, the sequences of proteins in these tests, tags left out. Where a name states a change or a piece, a line headed by the entry shows the natural chain unless it says otherwise.
UniProt P21860, whole entry: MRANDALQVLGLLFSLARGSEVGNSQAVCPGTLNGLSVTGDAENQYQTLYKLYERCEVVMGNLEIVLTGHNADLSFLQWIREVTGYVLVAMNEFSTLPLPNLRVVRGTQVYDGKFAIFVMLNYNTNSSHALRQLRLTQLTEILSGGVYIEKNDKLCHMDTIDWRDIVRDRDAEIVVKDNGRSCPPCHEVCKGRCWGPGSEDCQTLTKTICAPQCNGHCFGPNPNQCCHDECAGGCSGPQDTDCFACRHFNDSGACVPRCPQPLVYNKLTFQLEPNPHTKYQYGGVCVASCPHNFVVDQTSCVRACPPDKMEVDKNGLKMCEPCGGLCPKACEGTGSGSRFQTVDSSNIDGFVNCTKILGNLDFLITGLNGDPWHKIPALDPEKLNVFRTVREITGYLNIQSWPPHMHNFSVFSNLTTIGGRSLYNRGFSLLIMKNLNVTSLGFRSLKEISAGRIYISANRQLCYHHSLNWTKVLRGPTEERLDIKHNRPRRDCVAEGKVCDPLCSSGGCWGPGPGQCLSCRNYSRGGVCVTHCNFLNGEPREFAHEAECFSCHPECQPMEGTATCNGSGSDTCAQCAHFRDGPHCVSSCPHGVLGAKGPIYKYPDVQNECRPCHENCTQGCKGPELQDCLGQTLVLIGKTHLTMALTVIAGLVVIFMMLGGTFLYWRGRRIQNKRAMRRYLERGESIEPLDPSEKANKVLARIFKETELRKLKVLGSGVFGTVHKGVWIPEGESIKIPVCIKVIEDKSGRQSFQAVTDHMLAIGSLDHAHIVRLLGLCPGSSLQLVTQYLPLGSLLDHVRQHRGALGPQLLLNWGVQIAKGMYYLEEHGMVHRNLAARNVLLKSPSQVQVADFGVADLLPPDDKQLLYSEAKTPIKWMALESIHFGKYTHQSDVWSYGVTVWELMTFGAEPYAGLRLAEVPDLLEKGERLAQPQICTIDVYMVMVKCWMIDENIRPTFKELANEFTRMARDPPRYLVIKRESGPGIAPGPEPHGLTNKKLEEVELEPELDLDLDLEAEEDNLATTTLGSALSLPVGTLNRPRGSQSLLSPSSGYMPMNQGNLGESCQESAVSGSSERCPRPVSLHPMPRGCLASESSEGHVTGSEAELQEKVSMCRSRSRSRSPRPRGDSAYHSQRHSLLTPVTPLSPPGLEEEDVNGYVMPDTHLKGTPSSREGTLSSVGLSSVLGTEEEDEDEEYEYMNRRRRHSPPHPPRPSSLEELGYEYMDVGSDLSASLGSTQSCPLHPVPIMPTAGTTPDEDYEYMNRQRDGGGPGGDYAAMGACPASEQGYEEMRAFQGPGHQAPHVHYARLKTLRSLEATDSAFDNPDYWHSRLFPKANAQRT
UniProt Q15303, whole entry R711C: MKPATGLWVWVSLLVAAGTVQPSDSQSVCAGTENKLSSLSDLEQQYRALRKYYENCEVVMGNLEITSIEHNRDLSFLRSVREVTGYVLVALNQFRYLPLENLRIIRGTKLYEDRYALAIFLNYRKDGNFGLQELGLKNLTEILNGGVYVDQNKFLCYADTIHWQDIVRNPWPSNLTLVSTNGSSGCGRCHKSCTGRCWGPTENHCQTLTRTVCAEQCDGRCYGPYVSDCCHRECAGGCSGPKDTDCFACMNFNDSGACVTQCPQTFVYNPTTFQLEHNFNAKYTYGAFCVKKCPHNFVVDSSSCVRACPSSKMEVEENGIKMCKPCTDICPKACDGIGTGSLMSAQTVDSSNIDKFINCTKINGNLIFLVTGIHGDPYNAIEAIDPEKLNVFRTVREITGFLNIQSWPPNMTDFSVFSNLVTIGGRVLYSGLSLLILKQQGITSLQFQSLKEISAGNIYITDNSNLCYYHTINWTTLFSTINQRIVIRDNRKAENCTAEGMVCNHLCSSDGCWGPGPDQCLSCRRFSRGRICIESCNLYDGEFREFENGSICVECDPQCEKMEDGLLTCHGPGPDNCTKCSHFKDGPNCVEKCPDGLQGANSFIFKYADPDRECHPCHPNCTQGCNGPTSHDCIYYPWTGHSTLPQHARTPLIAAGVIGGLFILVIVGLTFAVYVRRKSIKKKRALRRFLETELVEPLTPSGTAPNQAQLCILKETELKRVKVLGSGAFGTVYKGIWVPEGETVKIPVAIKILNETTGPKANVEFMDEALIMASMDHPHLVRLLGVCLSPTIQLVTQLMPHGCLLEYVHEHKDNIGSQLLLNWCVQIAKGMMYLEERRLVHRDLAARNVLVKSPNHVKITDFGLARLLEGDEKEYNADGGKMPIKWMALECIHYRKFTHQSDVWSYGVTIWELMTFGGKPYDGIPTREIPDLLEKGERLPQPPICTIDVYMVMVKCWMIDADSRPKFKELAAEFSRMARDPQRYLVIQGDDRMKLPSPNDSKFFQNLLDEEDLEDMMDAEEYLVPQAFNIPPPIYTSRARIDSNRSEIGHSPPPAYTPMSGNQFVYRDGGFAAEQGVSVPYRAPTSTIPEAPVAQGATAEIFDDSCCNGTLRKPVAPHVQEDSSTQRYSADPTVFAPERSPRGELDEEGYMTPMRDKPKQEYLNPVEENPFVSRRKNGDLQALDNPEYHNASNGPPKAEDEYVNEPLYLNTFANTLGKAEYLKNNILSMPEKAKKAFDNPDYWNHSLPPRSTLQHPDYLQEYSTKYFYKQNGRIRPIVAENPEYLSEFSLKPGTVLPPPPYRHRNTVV
UniProt P11362, whole entry, looked up: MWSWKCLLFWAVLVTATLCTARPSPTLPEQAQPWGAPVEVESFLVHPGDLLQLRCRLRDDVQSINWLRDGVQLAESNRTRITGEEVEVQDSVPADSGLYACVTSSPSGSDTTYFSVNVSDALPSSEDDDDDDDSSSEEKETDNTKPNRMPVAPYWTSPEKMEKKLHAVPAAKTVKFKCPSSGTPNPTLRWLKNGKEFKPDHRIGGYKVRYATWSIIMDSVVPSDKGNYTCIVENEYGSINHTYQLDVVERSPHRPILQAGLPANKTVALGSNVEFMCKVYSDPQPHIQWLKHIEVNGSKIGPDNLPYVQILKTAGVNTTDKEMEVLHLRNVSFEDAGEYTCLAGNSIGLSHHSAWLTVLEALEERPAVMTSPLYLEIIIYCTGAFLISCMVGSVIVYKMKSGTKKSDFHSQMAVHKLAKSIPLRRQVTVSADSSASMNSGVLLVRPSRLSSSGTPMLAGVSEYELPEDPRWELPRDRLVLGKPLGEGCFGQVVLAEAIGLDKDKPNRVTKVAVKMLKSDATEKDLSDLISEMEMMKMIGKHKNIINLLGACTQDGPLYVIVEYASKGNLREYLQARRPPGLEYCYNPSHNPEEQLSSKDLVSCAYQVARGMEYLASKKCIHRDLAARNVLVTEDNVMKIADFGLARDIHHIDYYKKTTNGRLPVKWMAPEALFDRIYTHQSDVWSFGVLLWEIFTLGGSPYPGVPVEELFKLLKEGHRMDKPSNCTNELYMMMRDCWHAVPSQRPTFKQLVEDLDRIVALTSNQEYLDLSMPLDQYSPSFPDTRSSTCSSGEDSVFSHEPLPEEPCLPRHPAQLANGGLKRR
UniProt P21802, whole entry, looked up: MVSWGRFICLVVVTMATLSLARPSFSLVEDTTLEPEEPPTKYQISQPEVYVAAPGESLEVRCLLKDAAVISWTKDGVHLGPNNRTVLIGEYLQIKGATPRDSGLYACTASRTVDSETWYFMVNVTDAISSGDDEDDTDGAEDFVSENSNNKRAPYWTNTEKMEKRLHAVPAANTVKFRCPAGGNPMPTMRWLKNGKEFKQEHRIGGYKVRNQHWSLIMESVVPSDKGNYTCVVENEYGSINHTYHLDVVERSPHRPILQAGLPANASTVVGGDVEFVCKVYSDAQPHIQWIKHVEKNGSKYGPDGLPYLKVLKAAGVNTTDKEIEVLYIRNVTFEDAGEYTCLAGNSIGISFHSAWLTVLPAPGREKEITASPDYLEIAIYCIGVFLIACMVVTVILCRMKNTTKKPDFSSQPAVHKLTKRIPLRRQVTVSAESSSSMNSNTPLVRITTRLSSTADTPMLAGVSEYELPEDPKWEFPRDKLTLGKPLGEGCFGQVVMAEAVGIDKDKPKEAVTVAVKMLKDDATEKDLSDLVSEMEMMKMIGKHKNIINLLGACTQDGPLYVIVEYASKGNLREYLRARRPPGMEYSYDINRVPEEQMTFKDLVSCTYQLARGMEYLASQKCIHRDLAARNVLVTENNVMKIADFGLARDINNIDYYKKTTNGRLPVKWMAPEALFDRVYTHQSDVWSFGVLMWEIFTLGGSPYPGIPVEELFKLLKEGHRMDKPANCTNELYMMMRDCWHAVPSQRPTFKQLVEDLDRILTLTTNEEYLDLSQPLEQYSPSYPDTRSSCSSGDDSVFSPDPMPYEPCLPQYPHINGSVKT
UniProt P06241, whole entry, looked up: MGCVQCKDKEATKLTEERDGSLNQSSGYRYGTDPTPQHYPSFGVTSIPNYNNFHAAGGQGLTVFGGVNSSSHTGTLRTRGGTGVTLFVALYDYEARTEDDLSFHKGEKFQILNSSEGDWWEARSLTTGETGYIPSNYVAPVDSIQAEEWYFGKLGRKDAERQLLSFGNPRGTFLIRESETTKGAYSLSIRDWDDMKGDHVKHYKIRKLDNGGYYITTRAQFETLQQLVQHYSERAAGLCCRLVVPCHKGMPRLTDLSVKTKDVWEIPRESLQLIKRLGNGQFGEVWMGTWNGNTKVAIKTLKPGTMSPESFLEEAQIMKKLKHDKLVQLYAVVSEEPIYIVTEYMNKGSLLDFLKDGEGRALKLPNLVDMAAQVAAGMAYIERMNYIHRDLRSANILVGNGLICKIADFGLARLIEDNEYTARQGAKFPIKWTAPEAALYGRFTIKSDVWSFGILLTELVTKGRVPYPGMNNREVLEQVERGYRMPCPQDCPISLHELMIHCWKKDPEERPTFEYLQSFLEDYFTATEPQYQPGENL
UniProt P14616: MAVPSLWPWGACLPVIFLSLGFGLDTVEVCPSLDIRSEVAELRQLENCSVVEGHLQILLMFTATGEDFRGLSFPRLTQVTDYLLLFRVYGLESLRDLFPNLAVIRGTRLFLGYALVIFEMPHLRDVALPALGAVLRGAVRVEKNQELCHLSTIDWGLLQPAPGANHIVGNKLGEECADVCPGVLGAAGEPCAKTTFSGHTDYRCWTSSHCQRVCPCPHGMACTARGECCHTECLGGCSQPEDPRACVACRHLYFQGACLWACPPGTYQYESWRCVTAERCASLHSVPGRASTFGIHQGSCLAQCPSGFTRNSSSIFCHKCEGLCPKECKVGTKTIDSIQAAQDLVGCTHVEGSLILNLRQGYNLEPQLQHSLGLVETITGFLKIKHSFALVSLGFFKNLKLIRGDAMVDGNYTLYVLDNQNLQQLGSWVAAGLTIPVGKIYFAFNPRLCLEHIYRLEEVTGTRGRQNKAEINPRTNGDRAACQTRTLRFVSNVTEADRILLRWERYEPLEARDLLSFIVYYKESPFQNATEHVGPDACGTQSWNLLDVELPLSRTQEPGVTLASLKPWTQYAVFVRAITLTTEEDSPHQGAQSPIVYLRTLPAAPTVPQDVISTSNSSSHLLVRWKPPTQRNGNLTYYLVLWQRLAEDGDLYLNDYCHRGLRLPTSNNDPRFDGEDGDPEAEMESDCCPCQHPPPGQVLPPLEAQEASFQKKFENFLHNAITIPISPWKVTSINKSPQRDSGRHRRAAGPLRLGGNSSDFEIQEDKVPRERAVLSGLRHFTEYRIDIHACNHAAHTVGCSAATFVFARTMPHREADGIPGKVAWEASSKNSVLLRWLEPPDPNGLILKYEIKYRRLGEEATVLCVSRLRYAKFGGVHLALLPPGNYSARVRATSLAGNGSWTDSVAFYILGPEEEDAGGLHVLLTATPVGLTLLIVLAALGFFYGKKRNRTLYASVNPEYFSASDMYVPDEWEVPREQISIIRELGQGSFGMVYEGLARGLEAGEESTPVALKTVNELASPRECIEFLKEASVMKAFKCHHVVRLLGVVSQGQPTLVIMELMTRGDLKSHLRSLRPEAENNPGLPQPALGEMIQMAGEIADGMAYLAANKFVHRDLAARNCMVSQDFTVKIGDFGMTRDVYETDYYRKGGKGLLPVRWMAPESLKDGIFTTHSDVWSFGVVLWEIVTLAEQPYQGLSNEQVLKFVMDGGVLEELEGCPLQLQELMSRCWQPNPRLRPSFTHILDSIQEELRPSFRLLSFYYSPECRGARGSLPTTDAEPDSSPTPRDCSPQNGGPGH

How the values were obtained:
Assay in all cases: kinase-Nluc reporter destabilization hit call (1 = scored as downregulated) (binary); higher = compound decreases kinase abundance
Conditions in all cases: K562; 2-18 h
EGFR = EGFR (UniProt P00533)
EGFR_G719S = EGFR_G719S (UniProt P00533)
EGFR_G719S_T790M = EGFR_G719S_T790M (UniProt P00533)
EGFR_L718V = EGFR_L718V (UniProt P00533)
EGFR_L858R = EGFR_L858R (UniProt P00533)
EGFR_L861Q = EGFR_L861Q (UniProt P00533)
EGFR_T790M = EGFR_T790M (UniProt P00533)
EPHA2 = EPHA2 (UniProt P29317)
ERBB3 = ERBB3 (UniProt P21860)
[1] = target: ERBB4_R711C (clone: ERBB4_mut) (UniProt Q15303)
ERN1 = ERN1 (UniProt O75460)
FGFR1 = FGFR1 (UniProt P11362)
FGFR2 = FGFR2 (UniProt P21802)
FGFR3 = FGFR3 (UniProt P22607)
FGR = FGR (UniProt P09769)
FLT3 = FLT3 (UniProt P36888)
FYN = FYN (UniProt P06241)
GSK3A = GSK3A (UniProt P49840)
HER2 = HER2 (UniProt P04626)
INSRR = INSRR (UniProt P14616)

Measured: kinase-Nluc reporter destabilization hit call

COC(=O)c1cc2c(OC(C)C)cc(OC(C)C)cc2[nH]1 (2.5 µM)
inactive: EGFR 0 | EGFR_G719S 0 | EGFR_G719S_T790M 0 | EGFR_L718V 0 | EGFR_L858R 0 | EGFR_L861Q 0 | EGFR_T790M 0 | EPHA2 = 0 | ERBB3 = 0 | [1] 0 | ERN1 = 0 | FGFR1 = 0 | FGFR2 = 0 | FGFR3 = 0 | FGR 0 | FLT3 = 0 | FYN 0 | GSK3A 0 | HER2 = 0 | INSRR 0

Cn1cc(-c2ccc3nnc(Sc4ccc5nn(C)cc5c4)n3n2)cn1 [c-Met inhibitor 1] (10 µM)
inactive: EGFR 0 | EGFR_G719S 0 | EGFR_G719S_T790M 0 | EGFR_L718V 0 | EGFR_L858R 0 | EGFR_L861Q 0 | EGFR_T790M 0 | EPHA2 = 0 | ERBB3 = 0 | [1] 0 | ERN1 = 0 | FGFR1 = 0 | FGFR2 = 0 | FGFR3 = 0 | FGR 0 | FLT3 = 0 | FYN 0 | GSK3A 0 | HER2 = 0 | INSRR 0

COc1ccc(C2CC(c3ccc(Cl)cc3)=NN2c2nc(-c3ccncc3)cs2)cc1 (stereo not given) [mTOR inhibitor-8] (10 µM)
inactive: EGFR 0 | EGFR_G719S 0 | EGFR_G719S_T790M 0 | EGFR_L718V 0 | EGFR_L858R 0 | EGFR_L861Q 0 | EGFR_T790M 0 | EPHA2 = 0 | ERBB3 = 0 | [1] 0 | ERN1 = 0 | FGFR1 = 0 | FGFR2 = 0 | FGFR3 = 0 | FGR 0 | FLT3 = 0 | FYN 0 | GSK3A 0 | HER2 = 0 | INSRR 0

CC(C)Cn1cc(C#N)c2cc(Oc3ccc(NC(=O)[C@@H]4CCCN4)cc3)ccc21 (10 µM)
inactive: EGFR 0 | EGFR_G719S 0 | EGFR_G719S_T790M 0 | EGFR_L718V 0 | EGFR_L858R 0 | EGFR_L861Q 0 | EGFR_T790M 0 | EPHA2 = 0 | ERBB3 = 0 | [1] 0 | ERN1 = 0 | FGFR1 = 0 | FGFR2 = 0 | FGFR3 = 0 | FGR 0 | FLT3 = 0 | FYN 0 | GSK3A 0 | HER2 = 0 | INSRR 0

Cc1ccc(Nc2c(C(N)=O)cnc3cc(-c4ccncc4)ccc23)cc1C [cFMS Receptor Inhibitor II] (10 µM)
inactive: EGFR 0 | EGFR_G719S 0 | EGFR_G719S_T790M 0 | EGFR_L718V 0 | EGFR_L858R 0 | EGFR_L861Q 0 | EGFR_T790M 0 | EPHA2 = 0 | ERBB3 = 0 | [1] 0 | ERN1 = 0 | FGFR1 = 0 | FGFR2 = 0 | FGFR3 = 0 | FGR 0 | FLT3 = 0 | FYN 0 | GSK3A 0 | HER2 = 0 | INSRR 0

O=C(Nc1nc2cccc(-c3ccc(CN4CCS(=O)(=O)CC4)cc3)n2n1)C1CC1 [Filgotinib] (2.5 µM)
inactive: EGFR 0 | EGFR_G719S 0 | EGFR_G719S_T790M 0 | EGFR_L718V 0 | EGFR_L858R 0 | EGFR_L861Q 0 | EGFR_T790M 0 | EPHA2 = 0 | ERBB3 = 0 | [1] 0 | ERN1 = 0 | FGFR1 = 0 | FGFR2 = 0 | FGFR3 = 0 | FGR 0 | FLT3 = 0 | FYN 0 | GSK3A 0 | HER2 = 0 | INSRR 0

Nc1nc2c(ncn2COCCO)c(=O)[nH]1 [Acyclovir] (10 µM)
inactive: EGFR 0 | EGFR_G719S 0 | EGFR_G719S_T790M 0 | EGFR_L718V 0 | EGFR_L858R 0 | EGFR_L861Q 0 | EGFR_T790M 0 | EPHA2 = 0 | ERBB3 = 0 | [1] 0 | ERN1 = 0 | FGFR1 = 0 | FGFR2 = 0 | FGFR3 = 0 | FGR 0 | FLT3 = 0 | FYN 0 | GSK3A 0 | HER2 = 0 | INSRR 0

COc1cc(Nc2nc3ccccc3nc2NS(=O)(=O)c2ccc(NC(=O)c3ccc(C)c(OC)c3)cc2)cc(OC)c1 (10 µM)
inactive: EGFR 0 | EGFR_G719S 0 | EGFR_G719S_T790M 0 | EGFR_L718V 0 | EGFR_L858R 0 | EGFR_L861Q 0 | EGFR_T790M 0 | EPHA2 = 0 | ERBB3 = 0 | [1] 0 | ERN1 = 0 | FGFR1 = 0 | FGFR2 = 0 | FGFR3 = 0 | FGR 0 | FLT3 = 0 | FYN 0 | GSK3A 0 | HER2 = 0 | INSRR 0

CCCCNc1ncc2c(-c3ccc(CN4CCN(C)CC4)cc3)cn([C@H]3CC[C@H](O)CC3)c2n1 [UNC2025 (hydrochloride)] (2.5 µM)
inactive: EGFR 0 | EGFR_G719S 0 | EGFR_G719S_T790M 0 | EGFR_L718V 0 | EGFR_L858R 0 | EGFR_L861Q 0 | EGFR_T790M 0 | EPHA2 = 0 | ERBB3 = 0 | [1] 0 | ERN1 = 0 | FGFR1 = 0 | FGFR2 = 0 | FGFR3 = 0 | FGR 0 | FLT3 = 0 | FYN 0 | GSK3A 0 | HER2 = 0 | INSRR 0

CC(C)(C)NS(=O)(=O)c1cncc(-c2cc(F)c3nc(N)nn3c2)c1 (10 µM)
inactive: EGFR 0 | EGFR_G719S 0 | EGFR_G719S_T790M 0 | EGFR_L718V 0 | EGFR_L858R 0 | EGFR_L861Q 0 | EGFR_T790M 0 | EPHA2 = 0 | ERBB3 = 0 | [1] 0 | ERN1 = 0 | FGFR1 = 0 | FGFR2 = 0 | FGFR3 = 0 | FGR 0 | FLT3 = 0 | FYN 0 | GSK3A 0 | HER2 = 0 | INSRR 0

O=C1c2c(O)cc(O)cc2O[C@H](c2cc(O)c(O)c(O)c2)[C@H]1O [Dihydromyricetin] (10 µM)
inactive: EGFR 0 | EGFR_G719S 0 | EGFR_G719S_T790M 0 | EGFR_L718V 0 | EGFR_L858R 0 | EGFR_L861Q 0 | EGFR_T790M 0 | EPHA2 = 0 | ERBB3 = 0 | [1] 0 | ERN1 = 0 | FGFR1 = 0 | FGFR2 = 0 | FGFR3 = 0 | FGR 0 | FLT3 = 0 | FYN 0 | GSK3A 0 | HER2 = 0 | INSRR 0

C=CCN(/C=C1/C(=O)O[C@H](COC)[C@@]2(C)C1=C(O)C(=O)C1=C2[C@H](OC(C)=O)C[C@]2(C)C(=O)CC[C@@H]12)CC=C [Sonolisib] (2.5 µM)
inactive: EGFR 0 | EGFR_G719S 0 | EGFR_G719S_T790M 0 | EGFR_L718V 0 | EGFR_L858R 0 | EGFR_L861Q 0 | EGFR_T790M 0 | EPHA2 = 0 | ERBB3 = 0 | [1] 0 | ERN1 = 0 | FGFR1 = 0 | FGFR2 = 0 | FGFR3 = 0 | FGR 0 | FLT3 = 0 | FYN 0 | GSK3A 0 | HER2 = 0 | INSRR 0

O=c1sn(-c2cccc3ccccc23)c(=O)n1Cc1ccccc1 [Tideglusib] (10 µM)
inactive: EGFR 0 | EGFR_G719S 0 | EGFR_G719S_T790M 0 | EGFR_L718V 0 | EGFR_L858R 0 | EGFR_L861Q 0 | EGFR_T790M 0 | EPHA2 = 0 | ERBB3 = 0 | [1] 0 | ERN1 = 0 | FGFR1 = 0 | FGFR2 = 0 | FGFR3 = 0 | FGR 0 | FLT3 = 0 | FYN 0 | GSK3A 0 | HER2 = 0 | INSRR 0

O=C(CCc1ccc2n1[B-](F)(F)[N+]1=C(c3ccc[nH]3)C=CC1=C2)ON1C(=O)CCC1=O [Py-BODIPY-NHS ester] (2.5 µM)
inactive: EGFR 0 | EGFR_G719S 0 | EGFR_G719S_T790M 0 | EGFR_L718V 0 | EGFR_L858R 0 | EGFR_L861Q 0 | EGFR_T790M 0 | EPHA2 = 0 | ERBB3 = 0 | [1] 0 | ERN1 = 0 | FGFR1 = 0 | FGFR2 = 0 | FGFR3 = 0 | FGR 0 | FLT3 = 0 | FYN 0 | GSK3A 0 | HER2 = 0 | INSRR 0

Cc1cccc(Cn2nc(C)c3c(NC(=O)c4csc5c(N)ncnc45)cccc32)n1 (10 µM)
inactive: EGFR 0 | EGFR_G719S 0 | EGFR_G719S_T790M 0 | EGFR_L718V 0 | EGFR_L858R 0 | EGFR_L861Q 0 | EGFR_T790M 0 | EPHA2 = 0 | ERBB3 = 0 | [1] 0 | ERN1 = 0 | FGFR1 = 0 | FGFR2 = 0 | FGFR3 = 0 | FGR 0 | FLT3 = 0 | FYN 0 | GSK3A 0 | HER2 = 0 | INSRR 0

Some of these compounds in order of count of non-hydrogen atoms, ascending:
O=C1c2c(O)cc(O)cc2O[C@H](c2cc(O)c(O)c(O)c2)[C@H]1O [Dihydromyricetin] (10 µM)
inactive: EGFR 0 | EGFR_G719S 0 | EGFR_G719S_T790M 0 | EGFR_L718V 0 | EGFR_L858R 0 | EGFR_L861Q 0 | EGFR_T790M 0 | EPHA2 = 0 | ERBB3 = 0 | [1] 0 | ERN1 = 0 | FGFR1 = 0 | FGFR2 = 0 | FGFR3 = 0 | FGR 0 | FLT3 = 0 | FYN 0 | GSK3A 0 | HER2 = 0 | INSRR 0

O=C(CCc1ccc2n1[B-](F)(F)[N+]1=C(c3ccc[nH]3)C=CC1=C2)ON1C(=O)CCC1=O [Py-BODIPY-NHS ester] (2.5 µM)
inactive: EGFR 0 | EGFR_G719S 0 | EGFR_G719S_T790M 0 | EGFR_L718V 0 | EGFR_L858R 0 | EGFR_L861Q 0 | EGFR_T790M 0 | EPHA2 = 0 | ERBB3 = 0 | [1] 0 | ERN1 = 0 | FGFR1 = 0 | FGFR2 = 0 | FGFR3 = 0 | FGR 0 | FLT3 = 0 | FYN 0 | GSK3A 0 | HER2 = 0 | INSRR 0

C=CCN(/C=C1/C(=O)O[C@H](COC)[C@@]2(C)C1=C(O)C(=O)C1=C2[C@H](OC(C)=O)C[C@]2(C)C(=O)CC[C@@H]12)CC=C [Sonolisib] (2.5 µM)
inactive: EGFR 0 | EGFR_G719S 0 | EGFR_G719S_T790M 0 | EGFR_L718V 0 | EGFR_L858R 0 | EGFR_L861Q 0 | EGFR_T790M 0 | EPHA2 = 0 | ERBB3 = 0 | [1] 0 | ERN1 = 0 | FGFR1 = 0 | FGFR2 = 0 | FGFR3 = 0 | FGR 0 | FLT3 = 0 | FYN 0 | GSK3A 0 | HER2 = 0 | INSRR 0

Additional results follow.

CNCCOc1ccccc1C(C)(C)Nc1nccn(-c2cc(C(=O)NC3CC3)ccc2C)c1=O [p38α inhibitor 2] (10 µM)
inactive: EGFR 0 | EGFR_G719S 0 | EGFR_G719S_T790M 0 | EGFR_L718V 0 | EGFR_L858R 0 | EGFR_L861Q 0 | EGFR_T790M 0 | EPHA2 = 0 | ERBB3 = 0 | [1] 0 | ERN1 = 0 | FGFR1 = 0 | FGFR2 = 0 | FGFR3 = 0 | FGR 0 | FLT3 = 0 | FYN 0 | GSK3A 0 | HER2 = 0 | INSRR 0

O=C(Nc1cc(Cl)cc(Cl)c1)Nc1cc(Cl)cc(Cl)c1 (10 µM)
inactive: EGFR 0 | EGFR_G719S 0 | EGFR_G719S_T790M 0 | EGFR_L718V 0 | EGFR_L858R 0 | EGFR_L861Q 0 | EGFR_T790M 0 | EPHA2 = 0 | ERBB3 = 0 | [1] 0 | ERN1 = 0 | FGFR1 = 0 | FGFR2 = 0 | FGFR3 = 0 | FGR 0 | FLT3 = 0 | FYN 0 | GSK3A 0 | HER2 = 0 | INSRR 0

Cn1cc(-c2cn3nccc3c(-c3cnn([C@]4(CC#N)C[C@@H](C#N)C4)c3)n2)cn1 (10 µM)
inactive: EGFR 0 | EGFR_G719S 0 | EGFR_G719S_T790M 0 | EGFR_L718V 0 | EGFR_L858R 0 | EGFR_L861Q 0 | EGFR_T790M 0 | EPHA2 = 0 | ERBB3 = 0 | [1] 0 | ERN1 = 0 | FGFR1 = 0 | FGFR2 = 0 | FGFR3 = 0 | FGR 0 | FLT3 = 0 | FYN 0 | GSK3A 0 | HER2 = 0 | INSRR 0
